The list shows a part of the results.
What follows are targets tested with COc1ccc(Cn2ccc3cc(C)c(C(=O)NO)cc32)cc1 (assay: dose-dependent thermal stabilisation call (2D-TPP, DLPTP, 10% FDR) (binary (1 = stabilised)); higher = stabilised by the compound). Details: system: HL-60 intact cells; concentration range 0.04-10 µM.
Procedure: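 2D thermal proteome profiling in intact HL-60 cells treated with BRD-3811 (0, 0.04, 0.29, 2, 10 uM) for 90 min at 37 C, then heated 3 min at one of 12 temperatures (42-63.9 C). Soluble protein was quantified by TMT10 MS. The value is the DLPTP call of the paper: dose-dependent thermal stabilisation over all temperatures at 10% FDR (F-test of a dose-response against a flat model); one experiment, one call per tested protein.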

The chains behind the UniProt entries cited, without tags or fusion partners. Where a name states a change or a piece, a line headed by the entry shows the natural chain unless it says otherwise.
UniProt Q5VYK3, whole entry: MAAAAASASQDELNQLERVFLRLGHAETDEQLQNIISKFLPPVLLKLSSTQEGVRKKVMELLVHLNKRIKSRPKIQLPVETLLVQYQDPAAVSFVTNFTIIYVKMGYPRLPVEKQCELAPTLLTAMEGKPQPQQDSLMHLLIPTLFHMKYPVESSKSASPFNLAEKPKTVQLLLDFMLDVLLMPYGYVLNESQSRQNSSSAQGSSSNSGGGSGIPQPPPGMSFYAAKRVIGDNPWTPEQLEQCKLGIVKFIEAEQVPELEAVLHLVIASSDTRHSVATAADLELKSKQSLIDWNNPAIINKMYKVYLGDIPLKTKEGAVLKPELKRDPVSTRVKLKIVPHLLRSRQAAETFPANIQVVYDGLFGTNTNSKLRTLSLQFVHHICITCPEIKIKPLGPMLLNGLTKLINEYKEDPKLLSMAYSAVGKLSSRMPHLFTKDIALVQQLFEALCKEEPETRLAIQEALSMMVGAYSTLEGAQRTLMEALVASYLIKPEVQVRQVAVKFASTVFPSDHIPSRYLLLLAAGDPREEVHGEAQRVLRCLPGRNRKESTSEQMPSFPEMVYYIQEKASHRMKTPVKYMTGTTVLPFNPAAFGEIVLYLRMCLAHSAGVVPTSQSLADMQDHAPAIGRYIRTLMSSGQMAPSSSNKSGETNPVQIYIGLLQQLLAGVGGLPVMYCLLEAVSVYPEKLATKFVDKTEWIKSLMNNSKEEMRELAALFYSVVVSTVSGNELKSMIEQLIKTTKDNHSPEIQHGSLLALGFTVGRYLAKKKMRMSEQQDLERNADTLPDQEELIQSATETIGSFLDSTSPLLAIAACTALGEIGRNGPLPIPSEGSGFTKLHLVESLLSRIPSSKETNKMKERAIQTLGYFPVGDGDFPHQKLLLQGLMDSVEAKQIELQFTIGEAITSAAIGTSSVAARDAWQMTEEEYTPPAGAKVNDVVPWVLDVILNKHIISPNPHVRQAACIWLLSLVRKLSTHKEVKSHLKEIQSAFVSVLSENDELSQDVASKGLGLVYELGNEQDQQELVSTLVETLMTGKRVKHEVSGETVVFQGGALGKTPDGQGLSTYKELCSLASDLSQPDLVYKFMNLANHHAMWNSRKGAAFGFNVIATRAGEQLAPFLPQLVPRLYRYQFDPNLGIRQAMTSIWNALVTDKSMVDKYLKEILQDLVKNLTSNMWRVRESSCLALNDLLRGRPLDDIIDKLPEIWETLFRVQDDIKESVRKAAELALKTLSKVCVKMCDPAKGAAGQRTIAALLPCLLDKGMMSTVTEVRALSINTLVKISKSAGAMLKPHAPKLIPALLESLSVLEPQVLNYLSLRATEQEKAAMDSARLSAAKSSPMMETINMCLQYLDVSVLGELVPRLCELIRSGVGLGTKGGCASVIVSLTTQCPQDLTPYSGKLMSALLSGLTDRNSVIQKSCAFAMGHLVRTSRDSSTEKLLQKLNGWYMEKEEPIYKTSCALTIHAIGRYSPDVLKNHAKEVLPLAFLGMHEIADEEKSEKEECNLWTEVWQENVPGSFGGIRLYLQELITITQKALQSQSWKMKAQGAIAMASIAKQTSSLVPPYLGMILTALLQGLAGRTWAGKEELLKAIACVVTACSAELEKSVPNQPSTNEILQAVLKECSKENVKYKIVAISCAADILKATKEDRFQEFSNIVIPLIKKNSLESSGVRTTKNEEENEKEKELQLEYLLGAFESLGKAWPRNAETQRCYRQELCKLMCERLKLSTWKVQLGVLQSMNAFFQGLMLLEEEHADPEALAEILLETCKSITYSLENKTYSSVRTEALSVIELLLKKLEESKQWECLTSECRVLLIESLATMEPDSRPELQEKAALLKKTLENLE
UniProt Q02241: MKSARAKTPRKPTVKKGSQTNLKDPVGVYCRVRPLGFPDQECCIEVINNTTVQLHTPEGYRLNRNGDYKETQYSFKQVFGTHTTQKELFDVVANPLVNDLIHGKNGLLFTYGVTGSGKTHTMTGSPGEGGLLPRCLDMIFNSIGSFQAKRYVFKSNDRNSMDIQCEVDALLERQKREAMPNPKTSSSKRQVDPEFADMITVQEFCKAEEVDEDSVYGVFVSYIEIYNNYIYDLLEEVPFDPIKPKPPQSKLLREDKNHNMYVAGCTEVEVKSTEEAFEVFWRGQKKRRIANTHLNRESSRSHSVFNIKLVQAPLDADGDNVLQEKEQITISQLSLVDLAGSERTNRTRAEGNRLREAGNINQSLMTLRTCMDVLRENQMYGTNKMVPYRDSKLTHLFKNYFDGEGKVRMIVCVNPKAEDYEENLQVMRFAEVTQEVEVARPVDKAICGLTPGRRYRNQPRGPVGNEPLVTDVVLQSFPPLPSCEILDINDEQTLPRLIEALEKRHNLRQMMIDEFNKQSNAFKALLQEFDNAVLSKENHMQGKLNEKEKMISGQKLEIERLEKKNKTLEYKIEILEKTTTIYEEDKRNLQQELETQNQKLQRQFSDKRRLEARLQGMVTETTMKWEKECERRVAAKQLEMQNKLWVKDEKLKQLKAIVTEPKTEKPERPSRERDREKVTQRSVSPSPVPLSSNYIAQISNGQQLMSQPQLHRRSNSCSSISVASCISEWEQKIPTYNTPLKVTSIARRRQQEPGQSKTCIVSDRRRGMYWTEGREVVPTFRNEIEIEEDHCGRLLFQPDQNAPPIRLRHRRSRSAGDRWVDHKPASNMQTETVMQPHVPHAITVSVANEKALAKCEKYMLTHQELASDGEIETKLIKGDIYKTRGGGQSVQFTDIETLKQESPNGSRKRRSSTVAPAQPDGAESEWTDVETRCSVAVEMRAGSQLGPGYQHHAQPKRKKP
UniProt Q9H0X4: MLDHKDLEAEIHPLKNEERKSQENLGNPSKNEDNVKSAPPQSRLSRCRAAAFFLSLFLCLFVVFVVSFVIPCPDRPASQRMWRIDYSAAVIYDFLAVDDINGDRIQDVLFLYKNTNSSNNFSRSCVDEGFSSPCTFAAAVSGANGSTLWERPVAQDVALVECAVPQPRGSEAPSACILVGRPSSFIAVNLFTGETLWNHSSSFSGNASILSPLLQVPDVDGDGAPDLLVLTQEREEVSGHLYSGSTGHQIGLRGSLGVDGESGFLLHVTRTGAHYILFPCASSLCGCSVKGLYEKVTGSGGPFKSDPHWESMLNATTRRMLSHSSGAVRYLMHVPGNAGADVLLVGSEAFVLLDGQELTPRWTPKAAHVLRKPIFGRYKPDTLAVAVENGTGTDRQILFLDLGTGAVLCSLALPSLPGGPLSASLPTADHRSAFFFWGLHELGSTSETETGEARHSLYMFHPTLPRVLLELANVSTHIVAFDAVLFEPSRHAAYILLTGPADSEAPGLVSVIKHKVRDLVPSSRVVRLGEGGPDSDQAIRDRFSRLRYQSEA
UniProt Q8N4N3: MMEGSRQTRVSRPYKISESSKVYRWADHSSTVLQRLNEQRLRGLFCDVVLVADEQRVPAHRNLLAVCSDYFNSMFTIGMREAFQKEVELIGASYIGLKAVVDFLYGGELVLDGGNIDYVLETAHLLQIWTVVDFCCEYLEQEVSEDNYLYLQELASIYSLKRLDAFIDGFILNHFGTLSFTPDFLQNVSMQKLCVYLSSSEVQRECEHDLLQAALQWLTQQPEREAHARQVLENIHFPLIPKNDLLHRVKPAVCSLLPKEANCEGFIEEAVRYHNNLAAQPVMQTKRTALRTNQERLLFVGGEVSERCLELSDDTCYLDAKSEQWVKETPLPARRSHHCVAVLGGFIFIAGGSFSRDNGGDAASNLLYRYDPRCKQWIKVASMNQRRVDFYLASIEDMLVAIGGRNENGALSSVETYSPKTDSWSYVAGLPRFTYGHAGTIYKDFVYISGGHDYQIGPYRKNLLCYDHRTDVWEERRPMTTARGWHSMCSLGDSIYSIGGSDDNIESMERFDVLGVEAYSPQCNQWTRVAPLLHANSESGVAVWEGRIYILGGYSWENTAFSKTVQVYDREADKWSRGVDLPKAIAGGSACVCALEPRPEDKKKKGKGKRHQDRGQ
UniProt O75153: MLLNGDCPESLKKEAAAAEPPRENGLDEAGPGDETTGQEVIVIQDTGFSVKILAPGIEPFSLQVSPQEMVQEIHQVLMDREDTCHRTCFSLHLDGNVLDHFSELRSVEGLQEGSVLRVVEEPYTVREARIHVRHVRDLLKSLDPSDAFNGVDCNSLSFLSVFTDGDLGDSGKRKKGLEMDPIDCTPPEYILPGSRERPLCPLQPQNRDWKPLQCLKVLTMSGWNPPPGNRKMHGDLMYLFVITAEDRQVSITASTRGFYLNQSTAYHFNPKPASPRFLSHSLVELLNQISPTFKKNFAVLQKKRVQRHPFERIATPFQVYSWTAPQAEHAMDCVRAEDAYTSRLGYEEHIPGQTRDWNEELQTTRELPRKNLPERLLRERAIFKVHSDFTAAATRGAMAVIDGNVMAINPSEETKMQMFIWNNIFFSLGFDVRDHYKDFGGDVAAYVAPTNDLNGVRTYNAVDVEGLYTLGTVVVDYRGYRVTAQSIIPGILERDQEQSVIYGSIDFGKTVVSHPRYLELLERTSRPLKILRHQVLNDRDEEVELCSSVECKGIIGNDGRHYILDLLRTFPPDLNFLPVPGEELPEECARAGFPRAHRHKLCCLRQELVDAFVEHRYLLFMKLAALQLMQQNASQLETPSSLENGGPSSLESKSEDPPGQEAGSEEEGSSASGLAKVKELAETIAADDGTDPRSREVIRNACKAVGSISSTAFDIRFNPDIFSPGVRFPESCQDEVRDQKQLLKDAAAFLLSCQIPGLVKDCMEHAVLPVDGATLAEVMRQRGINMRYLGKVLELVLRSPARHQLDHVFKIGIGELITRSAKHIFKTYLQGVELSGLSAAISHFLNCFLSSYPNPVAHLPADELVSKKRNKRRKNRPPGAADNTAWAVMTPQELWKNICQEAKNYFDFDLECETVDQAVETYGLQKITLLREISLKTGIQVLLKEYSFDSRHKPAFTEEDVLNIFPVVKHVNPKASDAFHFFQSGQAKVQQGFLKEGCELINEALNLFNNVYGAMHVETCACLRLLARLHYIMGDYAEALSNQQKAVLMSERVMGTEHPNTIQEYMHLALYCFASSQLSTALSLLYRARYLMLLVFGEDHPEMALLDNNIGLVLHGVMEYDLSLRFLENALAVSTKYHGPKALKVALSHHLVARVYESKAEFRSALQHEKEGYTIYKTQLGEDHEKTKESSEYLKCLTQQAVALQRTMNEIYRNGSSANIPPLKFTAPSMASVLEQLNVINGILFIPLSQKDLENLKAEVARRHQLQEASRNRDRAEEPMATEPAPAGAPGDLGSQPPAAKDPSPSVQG
UniProt O60921: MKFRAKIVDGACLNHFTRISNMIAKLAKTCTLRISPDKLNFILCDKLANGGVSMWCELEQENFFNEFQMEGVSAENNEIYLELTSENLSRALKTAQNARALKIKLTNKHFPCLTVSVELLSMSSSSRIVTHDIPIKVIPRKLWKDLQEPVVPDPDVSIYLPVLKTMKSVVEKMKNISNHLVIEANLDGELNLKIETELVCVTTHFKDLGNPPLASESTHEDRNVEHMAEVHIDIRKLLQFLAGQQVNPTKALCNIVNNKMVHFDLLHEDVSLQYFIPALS
UniProt Q8N5M9: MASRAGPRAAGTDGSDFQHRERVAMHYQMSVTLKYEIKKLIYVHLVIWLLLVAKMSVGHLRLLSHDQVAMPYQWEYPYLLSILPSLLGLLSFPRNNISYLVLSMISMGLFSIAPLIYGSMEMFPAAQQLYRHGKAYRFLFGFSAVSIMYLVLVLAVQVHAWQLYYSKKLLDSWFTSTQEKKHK
UniProt Q9NVR0: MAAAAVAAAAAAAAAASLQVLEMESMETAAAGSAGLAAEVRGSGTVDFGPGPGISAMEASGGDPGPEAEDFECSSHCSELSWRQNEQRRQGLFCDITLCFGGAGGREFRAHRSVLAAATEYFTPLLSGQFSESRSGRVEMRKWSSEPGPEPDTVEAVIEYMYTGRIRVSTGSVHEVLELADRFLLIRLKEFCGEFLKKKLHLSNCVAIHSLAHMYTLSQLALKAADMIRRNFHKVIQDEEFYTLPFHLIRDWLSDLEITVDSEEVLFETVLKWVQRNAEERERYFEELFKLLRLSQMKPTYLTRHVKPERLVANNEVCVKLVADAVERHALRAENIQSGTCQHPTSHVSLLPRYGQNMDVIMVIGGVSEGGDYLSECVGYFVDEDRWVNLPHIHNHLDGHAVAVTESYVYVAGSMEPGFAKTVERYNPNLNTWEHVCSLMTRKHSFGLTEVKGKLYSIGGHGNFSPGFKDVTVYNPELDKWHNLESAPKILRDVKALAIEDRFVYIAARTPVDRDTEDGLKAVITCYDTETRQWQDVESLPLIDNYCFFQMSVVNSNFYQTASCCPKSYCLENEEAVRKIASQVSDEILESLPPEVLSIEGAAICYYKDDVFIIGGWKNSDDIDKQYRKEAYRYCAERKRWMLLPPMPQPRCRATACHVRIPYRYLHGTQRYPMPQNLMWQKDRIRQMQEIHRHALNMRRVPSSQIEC

| Target | dose-dependent thermal stabilisation call |
| --- | --- |
| KIAA0368 (UniProt Q5VYK3) | inactive: 0 |
| KIAA1545 (UniProt Q9HCM7) | inactive: 0 |
| HUWE1 (UniProt Q7Z6Z7) | inactive: 0 |
| KBTBD2 (UniProt Q8IY47) | inactive: 0 |
| KPNA6 (UniProt O60684) | inactive: 0 |
| JARID1B (UniProt Q9UGL1) | inactive: 0 |
| JTV1 (UniProt Q13155) | inactive: 0 |
| KHSRP (UniProt Q92945) | inactive: 0 |
| KLC4 (UniProt Q9NSK0) | inactive: 0 |
| INPPL1 (UniProt O15357) | inactive: 0 |
| KIAA0652 (UniProt O75143) | inactive: 0 |
| KIF23 (UniProt Q02241) | inactive: 0 |
| INTS5 (UniProt Q6P9B9) | inactive: 0 |
| KIAA1715 (UniProt Q9C0E8) | inactive: 0 |
| ITGAX (UniProt P20702) | inactive: 0 |
| IDH1 (UniProt O75874) | inactive: 0 |
| KIAA1704 (UniProt Q8IXQ4) | inactive: 0 |
| ITFG3 (UniProt Q9H0X4) | inactive: 0 |
| ITGA2 (UniProt P17301) | inactive: 0 |
| KIF14 (UniProt Q15058) | inactive: 0 |

A few values from the list.
Value for KIF14 (UniProt Q15058) under dose-dependent thermal stabilisation call: inactive: 0
Value for KBTBD2 (UniProt Q8IY47) under dose-dependent thermal stabilisation call: inactive: 0

More entries.

| Target | dose-dependent thermal stabilisation call |
| --- | --- |
| ING1 (UniProt Q9UK53) | inactive: 0 |
| JMJD7 (UniProt P0C870) | inactive: 0 |
| ISOC1 (UniProt Q96CN7) | inactive: 0 |
| ISL2 (UniProt Q96A47) | inactive: 0 |
| KLHL36 (UniProt Q8N4N3) | inactive: 0 |
| KIAA0196 (UniProt Q12768) | inactive: 0 |
| KIAA0664 (UniProt O75153) | inactive: 0 |
| JUND (UniProt P17535) | inactive: 0 |
| KIAA1429 (UniProt Q69YN4) | inactive: 0 |
| INTS10 (UniProt Q9NVR2) | inactive: 0 |
| KCMF1 (UniProt Q9P0J7) | inactive: 0 |
| IGHMBP2 (UniProt P38935) | inactive: 0 |
| HUS1 (UniProt O60921) | inactive: 0 |
| JAGN1 (UniProt Q8N5M9) | inactive: 0 |
| KLHL11 (UniProt Q9NVR0) | inactive: 0 |
| KIF3A (UniProt Q9Y496) | inactive: 0 |
| IGFBP2 (UniProt P18065) | inactive: 0 |
| KIAA0907 (UniProt Q7Z7F0) | inactive: 0 |
| KIAA0859 (UniProt Q8N6R0) | inactive: 0 |
| ITPR2 (UniProt Q14571) | inactive: 0 |
